The experiment concerns the target MIER1 (mesoderm induction early response protein 1) (UniProt Q5UAK0). The experiment in a line: co-IP; endogenous co-immunoprecipitation: MIER1 precipitated overnight at 4 °C from 1000 μg of total protein with anti-MIER1 antibody, protein A/G PLUS-Agarose beads 2 h, washed three times in lysis buffer, SDS-PAGE and immunoblotting; normal rabbit IgG as negative control.

Chains of the proteins cited; added tags and fusions are not shown.
UniProt Q5UAK0: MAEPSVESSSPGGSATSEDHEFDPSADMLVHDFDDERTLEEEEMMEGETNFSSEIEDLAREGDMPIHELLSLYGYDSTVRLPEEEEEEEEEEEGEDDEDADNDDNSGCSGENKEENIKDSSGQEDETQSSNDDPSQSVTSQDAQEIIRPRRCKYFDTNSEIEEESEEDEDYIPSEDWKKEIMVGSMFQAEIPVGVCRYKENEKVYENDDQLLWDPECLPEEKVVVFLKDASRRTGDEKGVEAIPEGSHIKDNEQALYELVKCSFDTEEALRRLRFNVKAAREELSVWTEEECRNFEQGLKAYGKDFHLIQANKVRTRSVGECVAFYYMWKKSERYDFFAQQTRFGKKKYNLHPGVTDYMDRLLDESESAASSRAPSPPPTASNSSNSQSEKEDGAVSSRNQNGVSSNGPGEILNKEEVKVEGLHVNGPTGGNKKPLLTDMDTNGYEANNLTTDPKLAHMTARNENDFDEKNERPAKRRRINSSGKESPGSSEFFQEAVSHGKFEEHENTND
UniProt O09106: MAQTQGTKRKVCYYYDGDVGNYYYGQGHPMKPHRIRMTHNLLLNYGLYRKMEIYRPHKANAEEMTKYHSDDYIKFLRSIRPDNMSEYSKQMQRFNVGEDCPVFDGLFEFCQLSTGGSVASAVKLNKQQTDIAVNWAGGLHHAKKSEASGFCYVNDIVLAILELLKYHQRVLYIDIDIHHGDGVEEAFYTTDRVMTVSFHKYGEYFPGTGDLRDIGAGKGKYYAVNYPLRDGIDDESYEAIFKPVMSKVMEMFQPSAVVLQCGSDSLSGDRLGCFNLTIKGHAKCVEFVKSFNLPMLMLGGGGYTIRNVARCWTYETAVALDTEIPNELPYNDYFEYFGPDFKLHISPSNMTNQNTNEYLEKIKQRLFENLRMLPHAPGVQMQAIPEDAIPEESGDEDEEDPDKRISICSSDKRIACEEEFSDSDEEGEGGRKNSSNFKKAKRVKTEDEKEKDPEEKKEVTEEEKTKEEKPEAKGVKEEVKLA
UniProt P70288: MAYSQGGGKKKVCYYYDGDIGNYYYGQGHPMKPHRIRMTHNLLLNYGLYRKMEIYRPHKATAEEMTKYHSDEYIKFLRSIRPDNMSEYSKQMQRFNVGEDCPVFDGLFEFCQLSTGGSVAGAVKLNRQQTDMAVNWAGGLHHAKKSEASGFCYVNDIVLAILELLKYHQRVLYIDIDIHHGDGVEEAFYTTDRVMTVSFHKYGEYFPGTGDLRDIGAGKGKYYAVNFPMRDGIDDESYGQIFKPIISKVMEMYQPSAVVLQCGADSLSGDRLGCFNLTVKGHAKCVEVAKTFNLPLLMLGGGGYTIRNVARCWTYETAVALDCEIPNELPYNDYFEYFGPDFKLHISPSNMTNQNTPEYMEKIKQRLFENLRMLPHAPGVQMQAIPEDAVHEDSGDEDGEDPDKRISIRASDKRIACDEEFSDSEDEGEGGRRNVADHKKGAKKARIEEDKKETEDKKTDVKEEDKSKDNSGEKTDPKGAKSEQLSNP

Results are given in words; binding and its absence hold for the method and conditions named. Binding seen in cells or lysates may run through a third protein. Some binding calls cover weakened binding; strength is not graded here.

Turning to “histone deacetylase (HDAC) 1 (from UniProt O09106 1-482)”, the binding entry is “binds”. Turning to “histone deacetylase (HDAC) 2 (from UniProt P70288 1-488)”, the binding result is recorded as “binds”.

The record behind these values is article PMC10024732.
